# Reference: PubChem BioAssay AID938 (National Center for Advancing Translational Sciences (NCATS), 2007)
# In all, about 73,000 compounds went through this assay and about 1,800 (2.5%) were called active. Roughly 13% stayed inconclusive and do not appear here. Calls come from the whole dose curve; as a rule, active = well fitted activation curve with a large enough effect; inconclusive = small, poorly fitted or top-dose-only effect; inactive = no such curve, though single readings can be large or run the other way. This is a selection; strong and weak results do not stand in their true shares. Where no call is shown, the source filed none. Some compounds were tested as several samples or in several runs, with calls that do not always agree.
# Experiment: qHTS Assay for Agonists of the Thyroid Stimulating Hormone Receptor: Activators of Intracellular cAMP Concentrations in Parental HEK 293; note: nearly all actives have a fitted effect of over 55% in size; for activation: % of control where 0% means no effect
# Conditions: parental HEK293 CNG cAMP sensor, membrane potential fluorescence; activation: at 57.1 µM (top of the series)
# Text: NIH Chemical Genomics Center [NCGC]
# NIH Molecular Libraries Screening Centers Network [MLSCN]
# PI Name: Dr. Marvin Gershengorn
# This cell based assay utilized a cyclic nucleotide gated ion channel (CNG) as a biosensor for cAMP induction. HEK 293 cells stably expressing the modified CNG were purchased from BD biosciences (http://www.atto.com/products/actone/features_benefits.shtml) . Stimulation of cAMP production causes the CNG to open and subsequent membrane depolarization to occur. A fluorescent membrane potential dye (BD biosciences) was utilized to detect cAMP stimulation in cells.
# The cells were maintained in DMEM medium (Invitrogen) containing 10 % FBS (Hyclone), 100 units/ml Penicillin, 100 ug/ml Streptomycin (Invitrogen), and 250 ug/ml Geneticin (Invitrogen) and 1 ug/ml Puromycin (Invitrogen) at 37C in 5% CO2. This assay was used as a counterscreen to "qHTS Assay for Agonists of the Thyroid Stimulating Hormone Receptor", to control for compounds signaling through endogenous receptors and other targets of HEK 293 cells.
# NCGC Assay Protocol Summary:
# High Throughput Screening. Freshly passaged cells were dispensed into 1536-well assay plates at 4 ul/well in DMEM containing phenol red (Invitrogen), 10% FCS (Hyclone), and 100 units/ml Penicillin, 100 ug/ml Streptomycin (Invitrogen) and incubated at 37 C with 5% CO2 for 20 to 36 hrs before the robotic screening. The screen was initiated by addition of 4 ul/well membrane potential dye containing 100 uM RO 20-1724 (Sigma Aldrich), followed by 60 min incubation at room temperature to allow for dye equilibration across the cell membrane. 23 nl/well compound or control was then added to the assay plates, which were incubated for additional 30 min before reading a Envision fluorescence plate reader (Perkin Elmer) in bottom-read mode for fluorescence intensity (emission at 590 nm).
# Keywords: cAMP, CNG Ion Channel, quantitative high throughput screening, qHTS, HTS, probe identification, CNG, cAMP, cyclic nucleotide gated ion channel PubChem
# Potency is the fitted concentration of half-maximal effect.
SMILES,activation,Potency
COC(=O)c1ccccc1NC(=O)CS(=O)(=O)Cc1nc(-c2ccc(C)cc2)oc1C,94.9%,–
CCOC(=O)CSc1nc2c(sc(=S)n2Cc2ccco2)c(=O)n1-c1ccccc1,–,active: 1.26 µM
Cc1nc2cnc(N(C)C)nc2n(CCc2ccccc2)c1=O,–,active: 15.8 µM
CCOC(=O)CNC(=O)CSc1nnc(Cn2c(=O)sc3ccccc32)n1C,75.8%,–
O=C(CSc1n[nH]c(=O)n1C1CC1)Nc1cc(Cl)ccc1Oc1ccccc1,–,active: 12.6 µM
Cc1ccc(-c2nc(=S)c3c(n2Cc2ccco2)CCCC3)cc1,–,active: 2.51 µM
CC(C)(C)c1ccc(S(=O)(=O)/C=C\C#N)cc1,inactive: -10.5%,–
CN(CC(=O)NCc1cccs1)S(=O)(=O)c1cccc2cccnc12,66.7%,–
Nc1nc(N2CCOCC2)nc(N(c2ccccc2)c2ccccc2)n1,69%,–
